Results from PubChem BioAssay AID256 (DTP/NCI, 2004).
The list does not hold the whole screen: it gathers tests that were run many times, whatever their T/C, doses with no T/C, and many T/C values between a quarter and a half above the control. Other doses and runs of a compound stand elsewhere. T/C: endpoint of the treated group in % of that of the vehicle group. Some doses have a count of surviving animals in place of a T/C: the source files T/C as zero there, which appears to mark a toxic dose or a test without result, not a measured value. Some survivor counts are full or nearly so, which does not show that the dose was tolerated: survival well below the control is almost never listed, so the zero probably covers shortened survival too. Survivors were counted at the toxicity check, usually on the fifth day, unless a day is given; later deaths do not show. Schedules are NCI's codes, taken here to give the interval after Q, in days (D) or hours (H), and the number of doses after X. Some molecules as drawn cover several salts, stereoisomers or complexes of the source; a dose is that of the sample tested. Some doses were run more than once; the values are given in rising order. Where survival is the endpoint, this PubChem deposit counts one and a half times the control or more as active, and values a quarter to a half above the control carry no call in these data; other NCI protocols may use other cut-offs. Additions like (4×) count equal records among those shown.

Tested on: CD2F1 mice, L1210 leukemia ip, survival T/C
Test: NCI In Vivo Anticancer Drug Screen. Data for tumor model L1210 Leukemia (intraperitoneal) in CD2F1 (CDF1) mice
Details: higher T/C = longer survival
In short: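 Transplantable tumor in mice; compound-treated vs vehicle-treated groups. Read-out = treated/control ratio of the measured endpoint.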

[1] = T/C endpoint: mean survival time, dose: 400.0 mg/kg/injection, schedule: Q04DX003 (ip), vehicle: saline with Tween-80
[2] = T/C endpoint: mean survival time, dose: 100.0 mg/kg/injection, schedule: Q04DX003 (ip), vehicle: saline with Tween-80
[3] = T/C endpoint: mean survival time, dose: 200.0 mg/kg/injection, schedule: Q04DX003 (ip), vehicle: saline with Tween-80
[4] = T/C endpoint: mean survival time, dose: 200.0 mg/kg/injection, schedule: Q04DX003 (ip), vehicle: saline
[5] = T/C endpoint: mean survival time, dose: 400.0 mg/kg/injection, schedule: Q01DX009 (ip), vehicle: saline with Tween-80
[6] = T/C endpoint: mean survival time, dose: 100.0 mg/kg/injection, schedule: Q01DX009 (ip), vehicle: Klucel (hydroxypropylcellulose) (HPC)
[7] = T/C endpoint: mean survival time, dose: 200.0 mg/kg/injection, schedule: Q01DX001 (ip), vehicle: saline with Tween-80
[8] = T/C endpoint: mean survival time, dose: 400.0 mg/kg/injection, schedule: Q01DX001 (ip), vehicle: saline with Tween-80
[9] = T/C endpoint: mean survival time, dose: 200.0 mg/kg/injection, schedule: Q01DX009 (ip), vehicle: saline with Tween-80
[10] = T/C endpoint: mean survival time, dose: 400.0 mg/kg/injection, schedule: Q04DX002 (ip), vehicle: saline with Tween-80

`CC1C=C(Br)C(=O)C(n2cnc3c(=O)n(C)c(=O)n(C)c32)O1` (stereo not given) was tested, and the survivor count (T/C endpoint: mean survival time, dose: 50.0 mg/kg/injection, schedule: Q01DX005 (ip), vehicle: distilled water + Tween-80) was 0 of 6, the survivor count (T/C endpoint: mean survival time, dose: 100.0 mg/kg/injection, schedule: Q01DX005 (ip), vehicle: distilled water + Tween-80) was 0 of 6 and the survivor count (T/C endpoint: mean survival time, dose: 200.0 mg/kg/injection, schedule: Q01DX005 (ip), vehicle: distilled water + Tween-80) was 0 of 6.

`NC(Cc1ccc(N(CCCl)CCCl)cc1)C(=O)O` (stereo not given) was tested, and the T/C (T/C endpoint: mean survival time, dose: 5.0 mg/kg/injection, schedule: Q01DX007 (ip), vehicle: Klucel (hydroxypropylcellulose) (HPC)) was 147 % of control, the T/C (T/C endpoint: mean survival time, dose: 5.0 mg/kg/injection, schedule: Q01DX007 (ip), vehicle: saline with Tween-80) was 144 % of control and the T/C (T/C endpoint: mean survival time, dose: 5.0 mg/kg/injection, schedule: Q03DX003 (ip), vehicle: Klucel (hydroxypropylcellulose) (HPC)) was 139 % of control. For the same compound, the T/C (T/C endpoint: mean survival time, dose: 5.0 mg/kg/injection, schedule: Q04DX003 (ip), vehicle: Klucel (hydroxypropylcellulose) (HPC)) was 132 % of control, the T/C (T/C endpoint: mean survival time, dose: 10.0 mg/kg/injection, schedule: Q01DX007 (ip), vehicle: Klucel (hydroxypropylcellulose) (HPC)) was 138 % of control and the T/C (T/C endpoint: mean survival time, dose: 10.0 mg/kg/injection, schedule: Q01DX007 (ip), vehicle: saline with Tween-80) was 134 % of control. The T/C (T/C endpoint: mean survival time, dose: 20.0 mg/kg/injection, schedule: Q03DX003 (ip), vehicle: Klucel (hydroxypropylcellulose) (HPC)) was 140 % of control and the survivor count (T/C endpoint: median survival time, dose: 32.0 mg/kg/injection, schedule: Q01DX009 (ip), vehicle: saline) was 4 of 6.

`CCCCOC(=O)c1ccc(NC(=O)Nc2ccccc2Cl)cc1` was tested, and the survivor count [1] was 1 of 6.

For `O=[As](O)(O)c1ccccc1[As](=O)(O)O`, the survivor count [2] was 1 of 6, the survivor count [3] was 0 of 6 and the survivor count [1] was 0 of 6.

For `O=CC(CO)CC(C=O)n1cnc2c(=O)[nH]cnc21` (stereo not given), the T/C (T/C endpoint: mean survival time, dose: 89.0 mg/kg/injection, schedule: Q04DX003 (ip), vehicle: saline) was 125 % of control, the T/C (T/C endpoint: mean survival time, dose: 133.0 mg/kg/injection, schedule: Q01DX009 (ip), vehicle: saline) was 136 % of control and the T/C (T/C endpoint: mean survival time, dose: 133.0 mg/kg/injection, schedule: Q04DX003 (ip), vehicle: saline) was 131 % of control. The T/C (T/C endpoint: mean survival time, dose: 200.0 mg/kg/injection, schedule: Q01DX009 (ip), vehicle: saline) was 141 % of control, the T/C [4] was 141 % of control and the T/C (T/C endpoint: median survival time, dose: 37.0 mg/kg/injection, schedule: Q01DX009 (ip), vehicle: saline) was 133 % of control. For the same compound, the T/C (T/C endpoint: median survival time, dose: 37.5 mg/kg/injection, schedule: Q01DX009 (ip), vehicle: saline) was 125 % of control, the T/C (T/C endpoint: median survival time, dose: 75.0 mg/kg/injection, schedule: Q01DX009 (ip), vehicle: saline) was 108, 131, 133, 148 % of control and the T/C (T/C endpoint: median survival time, dose: 150.0 mg/kg/injection, schedule: Q01DX009 (ip), vehicle: saline) was 124, 150 (2×), 154 % of control. For the same compound, the T/C (T/C endpoint: median survival time, dose: 300.0 mg/kg/injection, schedule: Q01DX009 (ip), vehicle: saline) was 127, 170, 172, 222 % of control and the survivor count (T/C endpoint: median survival time, dose: 600.0 mg/kg/injection, schedule: Q01DX009 (ip), vehicle: saline) was 0 of 6, 2 of 6, 3 of 6, 5 of 6.

With `CCCCCCCC[n+]1ccc(C#N)cc1` the survivor count (T/C endpoint: mean survival time, dose: 75.0 mg/kg/injection, schedule: Q01DX009 (ip), vehicle: saline) was 0 of 6.

`CNC(=O)Cc1ccc2cc(OC)c(OC)cc2c1` was tested, and the survivor count [5] was 0 of 6.

In the case of `CCOC(=O)c1cc(C)nc2c(Cl)cc(Cl)cc12`, the survivor count [5] is reported as 5 of 6.

`CCOC(=O)Nc1cc(NCCCCc2ccccc2)c([N+](=O)[O-])c(N)n1` was tested, and the survivor count (T/C endpoint: mean survival time, dose: 100.0 mg/kg/injection, schedule: Q01DX001 (ip), vehicle: Klucel (hydroxypropylcellulose) (HPC)) was 6 of 6, the survivor count (T/C endpoint: mean survival time, dose: 200.0 mg/kg/injection, schedule: Q01DX001 (ip), vehicle: Klucel (hydroxypropylcellulose) (HPC)) was 6 of 6 and the survivor count (T/C endpoint: mean survival time, dose: 400.0 mg/kg/injection, schedule: Q01DX001 (ip), vehicle: Klucel (hydroxypropylcellulose) (HPC)) was 6 of 6.

In the case of `O=c1cc(CBr)c2ccccc2[nH]1`, the survivor count (T/C endpoint: mean survival time, dose: 50.0 mg/kg/injection, schedule: Q04DX003 (ip), vehicle: saline with Tween-80) is reported as 2 of 6 and the survivor count [2] is reported as 0 of 6.

`O=C(CCl)Nc1ccc(Cl)cc1` was tested, and the survivor count [6] was 3 of 6, the survivor count (T/C endpoint: mean survival time, dose: 200.0 mg/kg/injection, schedule: Q04DX003 (ip), vehicle: Klucel (hydroxypropylcellulose) (HPC)) was 0 of 6 and the survivor count [3] was 1 of 6. The survivor count [1] was 0 of 6.

With `CC(=O)ON1C(=O)C=CC1=O` the survivor count [6] was 5 of 6, the survivor count (T/C endpoint: mean survival time, dose: 200.0 mg/kg/injection, schedule: Q01DX009 (ip), vehicle: Klucel (hydroxypropylcellulose) (HPC)) was 2 of 6 and the survivor count (T/C endpoint: mean survival time, dose: 400.0 mg/kg/injection, schedule: Q01DX009 (ip), vehicle: Klucel (hydroxypropylcellulose) (HPC)) was 0 of 6.

`O=C1C=CC(=O)N1c1ccccc1N1C(=O)C=CC1=O` was tested, and the survivor count (T/C endpoint: mean survival time, dose: 5.0 mg/kg/injection, schedule: Q01DX009 (ip), vehicle: Klucel (hydroxypropylcellulose) (HPC)) was 0 of 3.

With `Nc1ccc(CNC(=O)Nc2ccc(S(=O)(=O)F)cc2)cc1` the survivor count [2] was 3 of 3.

`Cn1c(CC#N)c(C[N+](C)(C)C)c2ccccc21` was tested, and the survivor count (T/C endpoint: mean survival time, dose: 10.0 mg/kg/injection, schedule: Q01DX009 (ip), vehicle: saline with Tween-80) was 0 of 6, the survivor count (T/C endpoint: mean survival time, dose: 20.0 mg/kg/injection, schedule: Q01DX001 (ip), vehicle: saline with Tween-80) was 0 of 6 and the survivor count (T/C endpoint: mean survival time, dose: 100.0 mg/kg/injection, schedule: Q01DX001 (ip), vehicle: saline with Tween-80) was 0 of 6. For the same compound, the survivor count [7] was 0 of 6 and the survivor count [8] was 0 of 6.

With `CC(C)NC(C)C` the survivor count (T/C endpoint: mean survival time, dose: 100.0 mg/kg/injection, schedule: Q04DX002 (ip), vehicle: saline with Tween-80) was 3 of 3.

`COc1ccc(SC(=O)N(C)C)cc1` was tested, and the survivor count [9] was 3 of 6 and the survivor count [5] was 3 of 6.

In the case of `CC(C)(C)N1CCC1C(O)c1ccccc1` (stereo not given), the survivor count [7] is reported as 1 of 6 and the survivor count [8] is reported as 0 of 6.

`CC(=O)c1ccc([NH-])c([NH-])c1.[Cl][Pt+2][Cl]` was tested, and the T/C (T/C endpoint: mean survival time, dose: 20.0 mg/kg/injection, schedule: Q01DX009 (ip), vehicle: distilled water + Tween-80) was 125 % of control and the T/C (T/C endpoint: mean survival time, dose: 40.0 mg/kg/injection, schedule: Q01DX009 (ip), vehicle: distilled water + Tween-80) was 130 % of control (2×).

In the case of `CCCCCCCCCCCCNC(=O)c1ccc[n+](C)c1`, the survivor count (T/C endpoint: mean survival time, dose: 25.0 mg/kg/injection, schedule: Q01DX009 (ip), vehicle: saline) is reported as 4 of 6, the survivor count (T/C endpoint: mean survival time, dose: 50.0 mg/kg/injection, schedule: Q01DX009 (ip), vehicle: saline) is reported as 0 of 6 and the survivor count (T/C endpoint: mean survival time, dose: 100.0 mg/kg/injection, schedule: Q04DX003 (ip), vehicle: saline) is reported as 1 of 6. The survivor count [4] was 0 of 6 and the survivor count (T/C endpoint: mean survival time, dose: 400.0 mg/kg/injection, schedule: Q04DX003 (ip), vehicle: saline) was 0 of 6.

With `COc1ccc(NC(=O)Nc2cccc(Cl)c2)c(OC)c1` the survivor count [10] was 3 of 3.

For `CCN(CC)CCC(O)c1ccc2c3ccccc3n(C)c2c1` (stereo not given), the survivor count (T/C endpoint: mean survival time, dose: 200.0 mg/kg/injection, schedule: Q04DX002 (ip), vehicle: saline with Tween-80) was 1 of 3 and the survivor count [10] was 0 of 3.

In the case of `O=C(NCCF)NC1CCSc2ccccc21` (stereo not given), the survivor count (T/C endpoint: mean survival time, dose: 300.0 mg/kg/injection, schedule: Q01DX001 (ip), vehicle: other) is reported as 0 of 6.

In the case of `CC(=O)Nc1ncc2nc(C)c(C)nc2n1`, the survivor count (T/C endpoint: mean survival time, dose: 100.0 mg/kg/injection, schedule: Q01DX009 (ip), vehicle: saline with Tween-80) is reported as 1 of 6 and the survivor count [9] is reported as 0 of 6.

In the case of `NC(=O)N/N=C\c1ccco1`, the survivor count [3] is reported as 3 of 6 and the survivor count [1] is reported as 0 of 6.

With `CC1=C(N2CC2C)C(=O)c2c(COC(N)=O)c3n(c2C1=O)CC1NC31` (stereo not given) the T/C (T/C endpoint: mean survival time, dose: 40.0 mg/kg/injection, schedule: Q01DX001 (ip), vehicle: distilled water + Tween-80) was 140 % of control and the survivor count (T/C endpoint: mean survival time, dose: 80.0 mg/kg/injection, schedule: Q01DX001 (ip), vehicle: distilled water + Tween-80) was 5 of 6.
